One experiment concerns the target T1, flag-tagged E4BP4 (UniProt O08750).
T1 sequence: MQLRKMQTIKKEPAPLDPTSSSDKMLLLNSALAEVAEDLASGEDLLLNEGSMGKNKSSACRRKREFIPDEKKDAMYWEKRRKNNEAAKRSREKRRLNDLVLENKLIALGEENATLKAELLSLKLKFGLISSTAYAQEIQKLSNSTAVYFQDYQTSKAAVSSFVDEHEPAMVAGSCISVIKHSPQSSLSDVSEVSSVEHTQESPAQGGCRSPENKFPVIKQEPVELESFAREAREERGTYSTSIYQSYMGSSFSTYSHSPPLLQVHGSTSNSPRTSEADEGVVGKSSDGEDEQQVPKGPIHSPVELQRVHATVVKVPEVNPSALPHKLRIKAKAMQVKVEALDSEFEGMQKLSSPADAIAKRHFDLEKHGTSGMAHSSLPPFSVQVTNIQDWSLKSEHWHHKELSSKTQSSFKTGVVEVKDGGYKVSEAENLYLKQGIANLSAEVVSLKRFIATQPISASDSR
The experiment can be described thus: co-IP; COS-7 cells transfected with myc-tagged Dec2 vectors and flag-tagged E4BP4 vector; lysates precipitated with anti-flag antibody, blot with anti-myc antibody.

Chains of the proteins cited; added tags and fusions are not shown. Lines headed by an entry give the natural chain unless they say otherwise; changes in a name come on top.
UniProt Q99PV5: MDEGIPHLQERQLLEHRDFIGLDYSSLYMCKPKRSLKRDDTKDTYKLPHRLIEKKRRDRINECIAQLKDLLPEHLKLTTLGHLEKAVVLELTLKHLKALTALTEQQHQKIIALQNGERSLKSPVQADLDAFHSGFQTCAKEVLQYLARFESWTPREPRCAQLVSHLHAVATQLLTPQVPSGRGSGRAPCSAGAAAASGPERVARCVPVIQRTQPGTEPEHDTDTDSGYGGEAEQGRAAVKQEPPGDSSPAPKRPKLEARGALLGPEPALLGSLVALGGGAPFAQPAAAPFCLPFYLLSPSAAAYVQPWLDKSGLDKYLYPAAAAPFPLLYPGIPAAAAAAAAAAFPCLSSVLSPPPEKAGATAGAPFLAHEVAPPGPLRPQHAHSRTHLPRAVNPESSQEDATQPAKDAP

The target in experiment [1] is DEC2 (differentiated embryonic chondrocyte-expressed 2) (UniProt Q99PV5). The experiment can be described thus: co-IP; NIH3T3 cells co-transfected with pcDNA3.1-Dec2 and pcDNA3.1-FLAG-E4bp4; lysate in 20 mM Tris-HCl pH 7.5, 150 mM NaCl, 0.3% Triton X-100; precipitated with anti-DEC2 antibody and Protein A agarose overnight at 4°C; blot with anti-FLAG.
For experiment [2], the target named is GST-DEC2 fusion protein (full-length Dec2 fused with GST) (UniProt Q99PV5). The experiment can be described thus: pull-down; purified GST-DEC2 on glutathione-coupled agarose beads; [35S]methionine-labeled E4BP4 synthesized in vitro; detected by radioactivity; only the target purified.

No constants are given. Whether binding was seen depends on the method and setting. In cells and extracts the contact can be indirect. Some results given as binding are weak or reduced against the parent protein; the word gives no strength. For part of these data: Where a sequence is shown, tags or fusion partners need not be part of it.

Take “myc-tagged DEC2 bHLH domain (from UniProt Q99PV5 44-99) (domain or fragment)”: the binding entry with flag-tagged E4BP4 is given as “binds”.

B1: Flag-tagged E4BP4 (E-promoter-binding protein 4) (protein, UniProt O08750 1-462)
chain: MQLRKMQTIKKEPAPLDPTSSSDKMLLLNSALAEVAEDLASGEDLLLNEGSMGKNKSSACRRKREFIPDEKKDAMYWEKRRKNNEAAKRSREKRRLNDLVLENKLIALGEENATLKAELLSLKLKFGLISSTAYAQEIQKLSNSTAVYFQDYQTSKAAVSSFVDEHEPAMVAGSCISVIKHSPQSSLSDVSEVSSVEHTQESPAQGGCRSPENKFPVIKQEPVELESFAREAREERGTYSTSIYQSYMGSSFSTYSHSPPLLQVHGSTSNSPRTSEADEGVVGKSSDGEDEQQVPKGPIHSPVELQRVHATVVKVPEVNPSALPHKLRIKAKAMQVKVEALDSEFEGMQKLSSPADAIAKRHFDLEKHGTSGMAHSSLPPFSVQVTNIQDWSLKSEHWHHKELSSKTQSSFKTGVVEVKDGGYKVSEAENLYLKQGIANLSAEVVSLKRFIATQPISASDSR
In the case of B1, the binding entry in experiment [1] is reported as “binds”.

B2: Radioisotope labeled S^35-E4BP4 (protein, UniProt O08750 1-462)
chain: MQLRKMQTIKKEPAPLDPTSSSDKMLLLNSALAEVAEDLASGEDLLLNEGSMGKNKSSACRRKREFIPDEKKDAMYWEKRRKNNEAAKRSREKRRLNDLVLENKLIALGEENATLKAELLSLKLKFGLISSTAYAQEIQKLSNSTAVYFQDYQTSKAAVSSFVDEHEPAMVAGSCISVIKHSPQSSLSDVSEVSSVEHTQESPAQGGCRSPENKFPVIKQEPVELESFAREAREERGTYSTSIYQSYMGSSFSTYSHSPPLLQVHGSTSNSPRTSEADEGVVGKSSDGEDEQQVPKGPIHSPVELQRVHATVVKVPEVNPSALPHKLRIKAKAMQVKVEALDSEFEGMQKLSSPADAIAKRHFDLEKHGTSGMAHSSLPPFSVQVTNIQDWSLKSEHWHHKELSSKTQSSFKTGVVEVKDGGYKVSEAENLYLKQGIANLSAEVVSLKRFIATQPISASDSR
modifications: [35S] methionine-labeled
As for B2, in experiment [2], the binding entry is given as “binds”.

(Values after PMC4512152.)
